# Reference: PubChem BioAssay AID652054 (National Center for Advancing Translational Sciences (NCATS), 2013)
# Chains of the proteins cited; added tags and fusions are not shown.
# UniProt P35462, whole entry, looked up: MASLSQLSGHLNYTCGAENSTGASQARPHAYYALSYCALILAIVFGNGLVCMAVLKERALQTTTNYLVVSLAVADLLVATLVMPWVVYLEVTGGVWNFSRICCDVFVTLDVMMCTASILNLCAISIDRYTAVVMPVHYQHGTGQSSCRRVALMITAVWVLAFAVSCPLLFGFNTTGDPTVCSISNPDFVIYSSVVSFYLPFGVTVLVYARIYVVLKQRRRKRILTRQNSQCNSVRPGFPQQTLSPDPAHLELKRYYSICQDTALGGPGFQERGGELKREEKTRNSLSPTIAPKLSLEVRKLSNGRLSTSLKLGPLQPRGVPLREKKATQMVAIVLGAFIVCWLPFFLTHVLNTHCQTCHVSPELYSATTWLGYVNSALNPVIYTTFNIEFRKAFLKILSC
# Hit rate of the full screen: of about 360,000 compounds, about 9,100 (2.5%) were called active. This list was built around the results that the source calls inconclusive (neither active nor inactive); the mix of calls is not that of the screen. No stated cut-off is given here; in the data, active means max response below about -50%; inconclusive means no clear call, values can overlap the other calls; inactive means above that.
# Molecular target: D(3) dopamine receptor (Homo sapiens) (UniProt P35462)
# Assay: qHTS of D3 Dopamine Receptor Antagonist: qHTS
# Settings: D3R cells, DiscoveRx beta-arrestin luminescence, antagonist mode; hits give low values
# Outline: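 Cells plated overnight at 1500 cells/well, then exposed to library compounds with dopamine controls for 90 minutes at 37 degrees C. DiscoveRx reagent added for 30–60 minutes at room temperature; luminescence read, quantitative HTS format.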
# On the % scale 0 is the no-effect control and ±100 the full control effect.
row,Compound,"max response, negative = inhibition"
1,O=C(c1cccc(Cl)c1)C1CCCN(Cc2ccc(N3CCNC3=O)cc2)C1 (configuration not stated),inconclusive: -40.5%
2,COC(=O)c1ccc2c(c1)C(C)(C)C(/C=C/c1ccccc1O)=[N+]2C,inconclusive: -36.4%
3,CN1CCN(C(=O)c2ccc3c(c2)NC(=O)C(C)(C)O3)CC1,inconclusive: -35.5%
4,COc1cccc(CNc2ccc(S(N)(=O)=O)cc2)c1OC,inactive: -29.7%
5,COc1ccccc1NC1=NC(c2ccc(Cl)cc2)N=C(N)N1 (configuration not stated),inconclusive: -32.5%
6,CCC(c1nnnn1CCOC)N1CCN(Cc2ccccc2OC)CC1 (configuration not stated),inconclusive: -31.3%
7,O=C(NCCOC(=O)c1ccc(Cl)cc1)c1cccnc1,inconclusive: -31.8%
8,Cc1cc2nc(-c3ccc(F)cc3)c(CC3CCCCC3)n2c(C)c1Br,inactive: 0%
9,COc1cc(CN2CCCC(CO)(Cc3ccccc3)C2)ccc1O (configuration not stated),inconclusive: -38.9%
10,CCCCCCOC(=O)Sc1nc2ccccc2o1,inconclusive: -39.1%
11,CNC(C)C(=O)NC(C(=O)N1CCCC1C(=O)NNc1ccccc1)C(C)C (configuration not stated),inconclusive: -49.3%
12,O=C(O)c1cccc(N/N=C/c2cccnc2)c1,inactive: -0.477%
13,CCc1nc2c(OCCC3CCCCC3)cccn2c1N(C)C(=O)c1ccc(OC)cc1,active: -111%
14,Cc1sc(-n2c(C)cc(/C=C3\SC(=S)NC3=O)c2C)c(C#N)c1C,active: -70.6%
15,CCc1ccc(S(=O)(=O)/N=C2\C=C(Nc3ccc(C(=O)O)cc3)C(=O)c3ccccc32)cc1,active: -67.8%
16,NS(=O)(=O)c1ccc(N2CCN(CCOc3ccc(Cl)cc3)CC2)nc1,inactive: -11.8%
17,CCN(CC)S(=O)(=O)c1cccc(C(=O)N2CCCCC2)c1,inconclusive: -38.6%
18,CCCCC(=O)Nc1cccc(NC(=O)CC)c1,inactive: 10.6%
19,CCOc1ccc(C(CCc2ccccc2)NC(=O)c2ccccc2)cc1OCC (configuration not stated),inconclusive: -34.4%
20,Cc1ccccc1NC1=C(C(=O)c2ccccc2)N(C)S(=O)(=O)c2ccccc21,inconclusive: -30.9%
21,CCC1Oc2ccc(C)cc2N(CC(=O)NCCCN2CCCC2)C1=O (configuration not stated),active: -67.9%
22,CC(Cl)=CCn1c(NCCc2ccccc2)nc2c1c(=O)n(C)c(=O)n2C,inactive: 74.9%
23,Cc1ccc(C)c(N2CCN(C(=O)c3ccc4c(=O)n5c(nc4c3)CCCCC5)CC2)c1,inconclusive: -44%

row,Compound,"max response, negative = inhibition"
1,COc1cc(CNCc2cccnc2)ccc1OCC(=O)NC1CCCCC1,inconclusive: -32.3%
2,Cc1cc(C(C)(C)C)ccc1OCCN1CCCC1,active: -64.3%
3,OC(CNCC1CCCCC1)COc1ccccc1 (configuration not stated),inconclusive: -30.8%
4,CCN1CCN(CC(=O)n2c3c(c4ccccc42)CC(C)CC3)CC1 (configuration not stated),inconclusive: -40.1%
5,COc1ccccc1-c1cc(C(F)(F)F)nc(S(C)(=O)=O)n1,inconclusive: -47.7%
6,N#C/C(=C/c1ccco1)C(N)=S,inconclusive: -38.3%
7,O=C(O)CN1CCN(Cc2ccccc2F)C1=O,inactive: -3.94%
8,O=C(Nc1cccc(Br)c1)c1ccc(CN2CCc3ccccc3C2)cc1,active: -56%
9,Cc1cc(Br)cn2c(Cc3ccccc3)c(-c3cccc(Cl)c3)nc12,active: -60.1%
10,COC(=O)Nc1nnc(-c2ccccc2Cl)s1,inconclusive: -30.2%
11,COc1ccc(S(=O)(=O)N2CCOCC2)cc1NC(=O)C1CC(=O)N(c2ccc3c(c2)OCCO3)C1 (configuration not stated),inactive: 12.1%
12,Cc1[nH][nH]c(=O)c1N=Nc1ccc(S(N)(=O)=O)cc1,inconclusive: -45.7%
13,O=C(CCC(=O)N1CCSc2ccccc21)Nc1ccc(F)cc1,inconclusive: -43.9%
14,O=C(CN1CCN(Cc2ccc(Cl)cc2)CC1)N1CCc2ccccc21,inconclusive: -34.1%
15,CS(=O)(=O)N(CC(=O)Nc1ccc2c(c1)OCCO2)c1ccc2c(c1)OCO2,inactive: 0%
16,O=C1C(=O)N(CCCn2ccnc2)C(c2ccc(Cl)cc2)/C1=C(\O)c1ccc2c(c1)OCCO2 (configuration not stated),inconclusive: -30.1%
17,CC(=O)c1cccc(NC(=O)COC(=O)c2ccc(S(C)(=O)=O)c([N+](=O)[O-])c2)c1,inconclusive: -47.5%
18,Cc1ccc(S(=O)(=O)NCC(=O)NCC(=O)NC(C)c2ccccc2Br)cc1C (configuration not stated),inconclusive: -39.2%
19,Cc1ccc(NC(=O)CSC(C)C(=O)OCC(=O)N2CCN(C(=O)c3ccco3)CC2)cc1 (configuration not stated),inconclusive: -31.5%
20,C/C(=N\Nc1nc(C)cc(-c2ccccc2)n1)c1ccc(C)o1,inconclusive: -37.1%
21,Cc1ccc(CN2C(=O)C(C)Nc3ncnc(N4CCN(c5ccccn5)CC4)c32)cc1 (configuration not stated),active: -132%
22,CCCCNCCOCCSc1ccc(Cl)cc1,active: -80.6%
23,CC(C)NC(=O)C(C)n1cccc1C(=O)c1ccccc1 (configuration not stated),inconclusive: -40.4%

row,Compound,"max response, negative = inhibition"
1,CCOc1ccccc1NC(=O)CCCc1ccc(OC)c(C)c1,inactive: 12.7%
2,COc1ccc(C2(CNC(=O)CCC(=O)O)CCCC2)cc1OC,active: -51.2%
3,COC(=O)CN1C(=O)C(O)(CC(=O)c2cccc(Br)c2)c2ccccc21 (configuration not stated),inactive: -5.82%
4,Cc1ccccc1N1CCN(c2ncnc3c2cnn3Cc2ccc(Cl)cc2)CC1,inconclusive: -32%
5,COc1ncccc1-c1cnc2cccnn12,inconclusive: -42.2%
6,COc1ccccc1N1CCN(Cc2cc3c(cc2Br)OCCO3)CC1,active: -75.7%
7,C=CCNC(=S)N/N=C(\C)c1ccccn1,active: -89.7%
8,Cc1ccccc1NCC(=O)N/N=C/c1c[nH]c2ccccc12,inactive: 8.64%
9,Clc1ccc(OC2CCN(Cc3nc(CC4CC4)no3)CC2)cc1,inactive: -0.503%
10,O=C(CCC1CCCC1)NC1CCCCC1,inconclusive: -47.8%
11,Cc1cc(N/N=C/c2ccccc2Cl)nc(NCc2ccccc2)n1,inconclusive: -30%
12,COc1ccc(CN2CCC(C(N)=O)CC2)cc1OCc1ccccc1,inactive: -4.11%
13,O=C(CN(Cc1ccccc1)S(=O)(=O)c1ccc(F)cc1)NCc1ccncc1,inactive: -5.09%
14,O=C(CSc1nnc(-c2ccncc2)o1)Nc1cccc(Cl)c1,inconclusive: -35.5%
15,COc1ccc(S(=O)(=O)N(C(C)=O)c2ccc(OC(C)=O)c3ccccc23)cc1[N+](=O)[O-],inactive: -16.7%
16,O=[N+]([O-])c1ccccc1-c1ccc(C(=S)N2CCN(c3ccccc3)CC2)o1,inconclusive: -49.5%
17,O=C(Nc1nnc(-c2ccco2)o1)c1ccc(N2C(=O)CCC2=O)cc1,inconclusive: -33.9%
18,c1ccc2c(c1)CCN(C1CCCCC1)C2,inconclusive: -40.6%
19,Cc1ccccc1CC1CCN(CCCNC(=O)Nc2ccccc2)CC1,active: -82.8%
20,CC(=O)c1cccc(NC(=O)c2ccc(Br)o2)c1,inconclusive: -49.6%
21,CC(=O)N1CCc2cc3nc(C)cc(C)c3cc21,inconclusive: -41.3%
22,Cc1ccc(NC(=O)c2cc(S(=O)(=O)N3CCCCC3)c[nH]2)cc1C,inconclusive: -35.2%
23,CCN1C(=O)/C(=C/c2ccc(C)s2)NC1=S,inconclusive: -31.5%

row,Compound,"max response, negative = inhibition"
1,CCc1ccc(NC(=O)Nc2cccs2)cc1,inactive: 10.9%
2,O=C(NCCc1ccccc1)c1n[nH]c(=O)c2ccccc12,inactive: -15.9%
3,COc1cccc(-c2nc(CS(=O)(=O)CC(=O)NCC(C)c3ccccc3)c(C)o2)c1 (configuration not stated),inactive: -1.62%
4,O=C(O)c1cc(N/N=C/C=C/c2ccccc2[N+](=O)[O-])ccc1Cl,inconclusive: -32.2%
5,Cc1ccc(CN2CCN(CC(=O)NCc3ccc(Cl)cc3)C2=O)cc1,inconclusive: -45.9%
6,S=C(Nc1ccc(Cl)cc1)c1sc(N2CCCCC2)nc1N1CCOCC1,inconclusive: -48.7%
7,CCCCc1cc(=O)oc2c(CN3CCN(C)CC3)c(O)ccc12,inactive: -17.3%
8,CN1CCC(=O)N(CCSc2ccc(Br)cc2)CC1,active: -56.4%
9,Oc1ccc(Cl)cc1/C=C/c1ccc2cccc(O)c2n1,inconclusive: -30.5%
10,COc1cc2c(cc1OC)C(SC)=NC(C)(C)C2,inconclusive: -30.5%
11,Nc1cc(=O)nc(SCC(=O)N(C2CCCCC2)C2CCCCC2)n1-c1ccccc1,inconclusive: -41.4%
12,COc1ccc(S(=O)(=O)N(CCCN2CCCC2=O)Cc2cc3c(C)ccc(C)c3[nH]c2=O)cc1,inconclusive: -47.1%
13,COc1ccc(C(=O)N/C(=C/c2ccccc2F)C(=O)NCCN2CCOCC2)cc1OC,inconclusive: -36.2%
14,Oc1ccc(Nc2nc3ccccc3nc2Nc2ccc(O)cc2)cc1,inconclusive: -46.7%
15,Oc1c(N=Nc2ccccn2)ccc2ccccc12,inconclusive: -31.6%
16,CCOC(=O)c1cc(-c2cccc([N+](=O)[O-])c2)nc2[nH]c(=O)[nH]c(=O)c12,inactive: -0.382%
17,COC(=O)[C@H](Cc1c[nH]c2ccccc12)NC(=O)NCc1ccccc1,inactive: 4.95%
18,CC(C)Oc1ccc(C(CCN)C2CCCCC2)cc1 (configuration not stated),inconclusive: -30.6%
19,COc1ccc(-n2nnc3c(=O)n(CC(=O)N4CCCc5ccccc54)cnc32)cc1,inconclusive: -34.9%
20,O=C(c1ccco1)N(CCC(c1ccccc1)c1ccco1)Cc1ccc(F)cc1 (configuration not stated),inactive: 17.9%
21,Cn1cc(CN2CCCC(CO)(Cc3ccccc3)C2)c2ccccc21 (configuration not stated),active: -50.3%
22,Oc1cccc2ccc(/C=C/c3c(F)cccc3Cl)nc12,inconclusive: -37.5%
23,O=C(NCC(c1ccco1)N1CCCC1)c1cccc(S(=O)(=O)N2CCc3ccccc32)c1 (configuration not stated),inconclusive: -41.8%

# Molecules shown so far containing a nitro group on carbon:
row,Compound,"max response, negative = inhibition"
17,CC(=O)c1cccc(NC(=O)COC(=O)c2ccc(S(C)(=O)=O)c([N+](=O)[O-])c2)c1,inconclusive: -47.5%
15,COc1ccc(S(=O)(=O)N(C(C)=O)c2ccc(OC(C)=O)c3ccccc23)cc1[N+](=O)[O-],inactive: -16.7%
16,O=[N+]([O-])c1ccccc1-c1ccc(C(=S)N2CCN(c3ccccc3)CC2)o1,inconclusive: -49.5%
4,O=C(O)c1cc(N/N=C/C=C/c2ccccc2[N+](=O)[O-])ccc1Cl,inconclusive: -32.2%
16,CCOC(=O)c1cc(-c2cccc([N+](=O)[O-])c2)nc2[nH]c(=O)[nH]c(=O)c12,inactive: -0.382%

# Structural class, the compounds so far containing a cyano group (two)
row,Compound,"max response, negative = inhibition"
14,Cc1sc(-n2c(C)cc(/C=C3\SC(=S)NC3=O)c2C)c(C#N)c1C,active: -70.6%
6,N#C/C(=C/c1ccco1)C(N)=S,inconclusive: -38.3%
